Laboratory results: PubChem BioAssay AID743454 (Peter MacCallum Cancer Centre, 2014)
Aim: 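Knock-downs lowering viability or raising caspase 3/7 activity in vorinostat-treated resistant cells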 (primary screen). Cell system: human HCT116-VR colon cancer cells, selected for vorinostat resistance. Reagents: siRNA pool against human genes, 40 nM siRNA pool. Time to read-out: vorinostat for 24 h, read-out about 72 h after transfection. Challenge: vorinostat at 2.5 µM final. Detection: 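Two measures, CellTiter-Fluor viability and luminescent caspase 3/7 activity, each as fold change against same-plate mock wells, mean of duplicates, then screen-wide robust z-score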. Scale: viability robust z-score: higher = more viable cells than screen typical; caspase robust z-score: higher = more caspase 3/7 activity than screen typical. Call rule: 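Hits are knock-downs in viability class RV1/RV2 or caspase class CA1/CA2, excluding ones that killed cells in the no-drug cell-count arm; hits then retested with single siRNAs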.
Shown is an unselected part of about 18,000 reagents. 450 of all reagents (2.5%) count as active. 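Single biological run; no consistent viability z cut-off exists, so the class columns, not z-scores, define the calls.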

| Target gene | viability hit class | caspase hit class | viability robust z-score | caspase robust z-score | Outcome |
| --- | --- | --- | --- | --- | --- |
| H4C12 | no change | no change | 0.74 | -0.26 | inactive |
| TTC23 | no change | no change | 0.32 | -0.44 | inactive |
| CREB5 | no change | no change | -0.62 | 1.27 | inactive |
| USH1G | no change | no change | -0.1 | 3.22 | inactive |
| TCP11 | no change | no change | -1.04 | 1.44 | inactive |
| CPNE6 | no change | no change | -0.22 | -0.12 | inactive |
| MTHFD2 | no change | no change | 0.87 | -0.52 | inactive |
| CRLF1 | no change | no change | -0.47 | 3.58 | inactive |
| ESRRB | no change | no change | -0.31 | -0.69 | inactive |
| CNOT6L | no change | no change | 0.32 | -0.45 | inactive |
| DCT | no change | no change | 0.91 | -0.38 | inactive |
| PAPSS2 | no change | no change | 0.18 | 0.43 | inactive |
| COX8A | no change | no change | 0.9 | -0.56 | inactive |
| TMEM35A | no change | no change | 0.43 | 0.37 | inactive |
| MGAT1 | no change | no change | 0.27 | 3.83 | inactive |
| UPB1 | no change | no change | 0.64 | 0.52 | inactive |
| SLC13A5 | no change | no change | -0.79 | 2.82 | inactive |
| SPEM1 | no change | no change | -0.06 | -0.58 | inactive |
| RBM11 | no change | no change | 0.54 | -0.02 | inactive |
| EIPR1 | no change | no change | 0.85 | -0.63 | inactive |
| ZRANB2 | no change | no change | -0.36 | 0.8 | inactive |
| STX3 | no change | no change | 0.84 | -1.21 | inactive |
| SMR3B | no change | CA2 (caspase activation) | -1.77 | 5.56 | active |
| ATP10B | no change | no change | 0.92 | -0.52 | inactive |
| ZBTB32 | no change | no change | -0.04 | 0.76 | inactive |
| TMX1 | no change | no change | -0.4 | -1.28 | inactive |
| DNAJC1 | no change | no change | -0.76 | -0.82 | inactive |
| TCL6 | no change | no change | -1.41 | 0.5 | inactive |

Continued (6 carried over from the part before).
| Target gene | viability hit class | caspase hit class | viability robust z-score | caspase robust z-score | Outcome |
| --- | --- | --- | --- | --- | --- |
| SMR3B | no change | CA2 (caspase activation) | -1.77 | 5.56 | active |
| ATP10B | no change | no change | 0.92 | -0.52 | inactive |
| ZBTB32 | no change | no change | -0.04 | 0.76 | inactive |
| TMX1 | no change | no change | -0.4 | -1.28 | inactive |
| DNAJC1 | no change | no change | -0.76 | -0.82 | inactive |
| TCL6 | no change | no change | -1.41 | 0.5 | inactive |
| POU6F2 | no change | no change | -1.55 | 1.8 | inactive |
| PLGRKT | no change | no change | 0.06 | 0.52 | inactive |
| DAO | no change | no change | -0.31 | 2.33 | inactive |
| SFTPA2B (retired record) | no change | no change | 0.22 | 0.48 | inactive |
| PDE7B | no change | no change | 0.58 | 0.76 | inactive |
| KRABD4 | no change | no change | 1.35 | -0.44 | inactive |
| UBE2F | no change | no change | -1.96 | 1.68 | inactive |
| CLTRN | no change | no change | 0.77 | 0.36 | inactive |
| BNIP3 | no change | no change | 0.06 | -0.74 | inactive |
| TAF8 | no change | no change | 1.02 | 0.41 | inactive |
| PLXNA2 | no change | no change | 0.33 | 1.08 | inactive |
| KIFC3 | no change | no change | -0.88 | -0.38 | inactive |
| AMD1 | no change | no change | -1.68 | -0.46 | inactive |
| PES1 | no change | no change | -1.82 | -0.13 | inactive |
| STOML3 | no change | no change | 1.32 | -0.32 | inactive |
| GOLGA5 | no change | no change | -0.12 | -0.2 | inactive |
| PRSS50 | no change | no change | -0.66 | 1.29 | inactive |
| TADA3 | no change | no change | -0.44 | 2.44 | inactive |
| DNAJC4 | no change | no change | -0.12 | -0.92 | inactive |
| KRTAP5-9 | no change | no change | -2.65 | 4.34 | inactive |
| KRT85 | no change | no change | 0.24 | -0.7 | inactive |
| CRYBG2 | no change | no change | -1.09 | 2.51 | inactive |
| RAB4A | no change | no change | 0.86 | -0.56 | inactive |
| GUCA1A | no change | no change | -0.42 | 4.18 | inactive |
| SLC5A9 | no change | no change | 0.88 | 1.36 | inactive |
| ZC3H8 | no change | no change | -1.17 | 0.37 | inactive |
| CA3 | no change | no change | -0.54 | 2.36 | inactive |
| PRAMEF4 | no change | no change | -0.6 | 2.39 | inactive |
| SNU13 | no change | no change | 0.34 | 0.2 | inactive |
